Where two headings read alike, the source gives them in different places. These are yes or no findings as the source states them, for the method shown. In cells and extracts the contact can be indirect. Some results given as binding are weak or reduced against the parent protein; the word gives no strength.
B1: MKRN1 (enzyme, UniProt Q9UHC7 1-482)
chain: MAEAATPGTTATTSGAGAAAATAAAASPTPIPTVTAPSLGAGGGGGGSDGSGGGWTKQVTCRYFMHGVCKEGDNCRYSHDLSDSPYSVVCKYFQRGYCIYGDRCRYEHSKPLKQEEATATELTTKSSLAASSSLSSIVGPLVEMNTGEAESRNSNFATVGAGSEDWVNAIEFVPGQPYCGRTAPSCTEAPLQGSVTKEESEKEQTAVETKKQLCPYAAVGECRYGENCVYLHGDSCDMCGLQVLHPMDAAQRSQHIKSCIEAHEKDMELSFAVQRSKDMVCGICMEVVYEKANPSERRFGILSNCNHTYCLKCIRKWRSAKQFESKIIKSCPECRITSNFVIPSEYWVEEKEEKQKLILKYKEAMSNKACRYFDEGRGSCPFGGNCFYKHAYPDGRREEPQRQKVGTSSRYRAQRRNHFWELIEERENSNPFDNDEEEVVTFELGEMLLMLLAAGGDDELTDSEDEWDLFHDELEDFYDLDL

Amino acid sequences for entries named in this document (tags omitted).
UniProt P11940: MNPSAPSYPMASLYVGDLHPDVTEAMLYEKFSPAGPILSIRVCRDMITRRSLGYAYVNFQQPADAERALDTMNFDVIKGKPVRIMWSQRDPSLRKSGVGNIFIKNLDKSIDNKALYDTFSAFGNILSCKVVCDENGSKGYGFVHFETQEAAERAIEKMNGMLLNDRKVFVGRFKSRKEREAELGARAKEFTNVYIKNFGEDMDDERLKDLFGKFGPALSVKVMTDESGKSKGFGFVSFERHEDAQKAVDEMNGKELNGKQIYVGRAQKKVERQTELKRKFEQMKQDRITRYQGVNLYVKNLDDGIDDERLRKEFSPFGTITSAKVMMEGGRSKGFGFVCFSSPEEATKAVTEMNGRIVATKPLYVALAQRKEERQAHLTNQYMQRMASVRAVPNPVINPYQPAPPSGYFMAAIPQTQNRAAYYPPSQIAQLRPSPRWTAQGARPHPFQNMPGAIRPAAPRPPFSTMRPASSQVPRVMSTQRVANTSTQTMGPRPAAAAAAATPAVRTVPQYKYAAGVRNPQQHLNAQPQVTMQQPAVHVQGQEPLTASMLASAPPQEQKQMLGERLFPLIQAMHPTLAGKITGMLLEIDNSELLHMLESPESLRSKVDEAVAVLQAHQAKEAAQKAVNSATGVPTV
UniProt Q9BYM8: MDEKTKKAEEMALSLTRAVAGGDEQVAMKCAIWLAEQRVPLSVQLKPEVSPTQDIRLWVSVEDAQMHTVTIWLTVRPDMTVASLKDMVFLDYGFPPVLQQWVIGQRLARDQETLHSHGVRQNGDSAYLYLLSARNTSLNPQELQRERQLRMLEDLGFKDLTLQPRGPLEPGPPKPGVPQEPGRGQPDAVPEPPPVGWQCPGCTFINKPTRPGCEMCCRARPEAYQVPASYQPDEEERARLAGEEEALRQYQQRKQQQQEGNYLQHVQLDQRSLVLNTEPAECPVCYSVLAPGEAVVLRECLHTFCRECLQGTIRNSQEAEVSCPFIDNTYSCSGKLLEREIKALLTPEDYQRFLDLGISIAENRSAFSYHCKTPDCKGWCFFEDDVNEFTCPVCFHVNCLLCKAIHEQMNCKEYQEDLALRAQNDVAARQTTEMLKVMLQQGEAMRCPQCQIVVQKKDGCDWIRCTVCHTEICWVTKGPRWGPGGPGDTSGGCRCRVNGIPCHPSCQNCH
UniProt P06730: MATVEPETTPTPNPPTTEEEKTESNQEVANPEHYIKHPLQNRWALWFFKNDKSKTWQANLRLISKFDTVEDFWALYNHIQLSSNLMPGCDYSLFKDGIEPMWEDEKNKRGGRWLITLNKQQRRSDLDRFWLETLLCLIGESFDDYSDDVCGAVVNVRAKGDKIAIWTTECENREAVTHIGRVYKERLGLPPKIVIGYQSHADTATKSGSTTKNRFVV

Legend:
Experiment in all cases: co-IP
PABPC1-GFP = PABPC1-GFP (UniProt P11940)
[1] = molecular target: endogenous PABPC1 (human (endogenous in AC16)) (UniProt P11940)
[2] = molecular target: endogenous PABPC1 (human (endogenous in AC16)) (UniProt P11940); remark: listed apart in the source

| Molecule | binding [1] | further results |
| --- | --- | --- |
| Full-length HOIL-1 (from UniProt Q9BYM8 1-510) (enzyme) |  | binding (PABPC1-GFP): binds |
| eIF4E (from UniProt P06730 1-217) | binds |  |
| full-length HOIL-1 (endogenous) (from UniProt Q9BYM8 1-510) (enzyme) | binds |  |
| B1 |  | binding [2]: binds |

— doi:10.1101/2024.10.10.617692
